Earlier results in patent US20080193964A1, “Compositions and methods for regulation of calcium-dependent signaling in brain” (priority 2002, published 2008).
For at least one compound, name, drawing or mass did not settle the structure.

System: DARPP-21 phosphorylation
Details: treatment of mice; cited from earlier work

COC(=O)[C@H]1[C@@H](OC(=O)c2ccccc2)C[C@@H]2CC[C@H]1N2C [cocaine]
DARPP-21 phosphorylation in vivo: increased
